# Source: patent publication US20210299076A1, “AMINO ACID FORMULATIONS AND USES THEREOF” (University of Florida Research Foundation, Incorporated, priority 2012, published 2021)
# At least one structure is not confirmed: it was looked up by name or label, or the drawing left a doubt.
# System: intracellular cAMP in ileal epithelial cells
# Assay: Colorimetric intracellular cAMP measurement in ileal villus and crypt cells
# Format: cell-based, mouse
# Conditions: 45 minutes (positive control)
# Description: Freshly isolated mucosal scrapings of ileal epithelial cells are washed three times in Ringer's solution containing 1.2 mM Ca^2+ at 37° C. […] Cells are treated with 0.1 M HCl to stop endogenous phosphodiesterase activity. The lysates are then used for cAMP assay using cAMP direct immunoassay kit (Calbiochem, USA). The quantitative assay of cAMP uses a polyclonal antibody to cAMP that binds to cAMP in samples in a competitive manner. After a simultaneous incubation at room temperature, the excess reagents are washed away and substrates are added. After a short incubation time, the reaction is stopped and the yellow color generated is read at 405 nm. The intensity of the color is inversely proportional to the concentration of cAMP in standards and samples. cAMP levels are standardized to protein levels from respective fractions and expressed in pmol (mg protein)^−1. Forskolin treated cells are used as a positive control. Glucose and forskolin treated cells are incubated for 45 minutes. All the assays are performed in triplicate and repeated until n=4 different mice.
smiles,measurement,value
C=C[C@@]1(C)CC(=O)[C@]2(O)[C@@]3(C)[C@@H](O)CCC(C)(C)[C@@H]3[C@H](O)[C@H](OC(C)=O)[C@@]2(C)O1 [forskolin],Intracellular cAMP level,significant increase
